Results published in paper PMC7015941.

The chains behind the UniProt entries cited, without tags or fusion partners.
UniProt O75832: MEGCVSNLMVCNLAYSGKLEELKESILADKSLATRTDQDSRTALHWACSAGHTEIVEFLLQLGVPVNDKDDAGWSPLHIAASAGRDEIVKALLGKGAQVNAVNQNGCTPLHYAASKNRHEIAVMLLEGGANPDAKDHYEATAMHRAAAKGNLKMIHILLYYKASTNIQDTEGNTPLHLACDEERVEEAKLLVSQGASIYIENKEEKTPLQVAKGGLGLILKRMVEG
UniProt P40763: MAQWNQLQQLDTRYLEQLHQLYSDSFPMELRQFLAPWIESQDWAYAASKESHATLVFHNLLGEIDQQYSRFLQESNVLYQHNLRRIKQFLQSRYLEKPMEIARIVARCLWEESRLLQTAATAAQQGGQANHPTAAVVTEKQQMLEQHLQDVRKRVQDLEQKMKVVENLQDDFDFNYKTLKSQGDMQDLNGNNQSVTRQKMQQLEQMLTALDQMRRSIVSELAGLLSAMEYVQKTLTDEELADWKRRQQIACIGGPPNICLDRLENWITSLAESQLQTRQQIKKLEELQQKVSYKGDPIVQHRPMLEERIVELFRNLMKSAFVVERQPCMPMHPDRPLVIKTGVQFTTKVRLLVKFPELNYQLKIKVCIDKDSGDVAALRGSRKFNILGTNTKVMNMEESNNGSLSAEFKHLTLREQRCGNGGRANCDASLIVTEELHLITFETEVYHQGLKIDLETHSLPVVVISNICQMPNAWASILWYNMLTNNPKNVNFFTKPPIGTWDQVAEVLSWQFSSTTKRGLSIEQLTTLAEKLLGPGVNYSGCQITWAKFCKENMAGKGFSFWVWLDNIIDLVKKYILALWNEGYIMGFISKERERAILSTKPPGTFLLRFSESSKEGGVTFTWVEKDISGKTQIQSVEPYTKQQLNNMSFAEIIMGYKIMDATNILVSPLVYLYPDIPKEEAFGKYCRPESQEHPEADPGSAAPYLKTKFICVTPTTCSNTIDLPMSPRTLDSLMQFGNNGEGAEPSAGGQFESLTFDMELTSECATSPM

Target: gankyrin (human (endogenous in 786-O)) (UniProt O75832)
Test: affinity purification with mass spectrometry; gankyrin-interacting proteins identified by nano-LC-ESI-MS/MS; performed as in ref. 20; cells and way of isolation not stated

Substance: STAT3 (from UniProt P40763 1-770)
- binding: binds

Results are given in words; binding and its absence hold for the method and conditions named. In cells and extracts the contact can be indirect. These calls come from enrichment with a bait or labelling near it, and not all partners need be listed.
